Results taken from the supplement of paper PMC8728848.
The other results are listed elsewhere or left out.

Experiments:
Assay in all cases: glycan array binding signal (z-score within array); higher = stronger binding
Conditions in all cases: glycan notation: IUPAC condensed, linker removed
[1] = biological target: GlcNAc(a1-6)Gal(b1-4)GlcNAc
Summary of the method: (§1)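 Glycan array data came from 3228 arrays in the Consortium for Functional Glycomics database, and only arrays with an available protein sequence were kept. Glycan names were put into IUPAC-condensed notation, and columns mapping to the same glycan were averaged. The binding signal is a within-array Z-score, averaged across arrays of one protein sequence run at different concentrations or buffers and across linkers. A negative Z-score can be read as non-binding.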

[2] = biological target: GlcNAc(b1-2)Gal(b1-3)GalNAc
Summary of the method: as §1

[3] = biological target: GlcNAc(b1-2)Man(a1-3)[GlcNAc(b1-2)Man(a1-6)]Man(b1-4)GlcNAc(b1-4)GlcNAc
Summary of the method: as §1

[4] = biological target: GlcNAc(b1-2)Man(a1-3)[GlcNAc(b1-2)Man(a1-6)]Man(b1-4)GlcNAc(b1-4)[Fuc(a1-6)]GlcNAc
Summary of the method: as §1

[5] = biological target: GlcNAc(b1-2)Man(a1-3)[GlcNAc(b1-4)][GlcNAc(b1-2)Man(a1-6)]Man(b1-4)GlcNAc(b1-4)GlcNAc
Summary of the method: as §1

[6] = biological target: GlcNAc(b1-2)Man(a1-3)[GlcNAc(b1-4)][GlcNAc(b1-2)Man(a1-6)]Man(b1-4)GlcNAc(b1-4)[Fuc(a1-6)]GlcNAc
Summary of the method: as §1

[7] = biological target: GlcNAc(b1-2)[GlcNAc(b1-4)]Man(a1-3)[GlcNAc(b1-2)Man(a1-6)]Man(b1-4)GlcNAc(b1-4)GlcNAc
Summary of the method: as §1

[8] = biological target: GlcNAc(b1-2)[GlcNAc(b1-4)]Man(a1-3)[GlcNAc(b1-4)][GlcNAc(b1-2)Man(a1-6)]Man(b1-4)GlcNAc(b1-4)GlcNAc
Summary of the method: as §1

[9] = biological target: GlcNAc(b1-2)[GlcNAc(b1-4)]Man(a1-3)[GlcNAc(b1-4)][GlcNAc(b1-2)[GlcNAc(b1-6)]Man(a1-6)]Man(b1-4)GlcNAc(b1-4)GlcNAc
Summary of the method: as §1

[10] = biological target: GlcNAc(b1-2)[GlcNAc(b1-4)]Man(a1-3)[GlcNAc(b1-4)][GlcNAc(b1-2)[GlcNAc(b1-6)]Man(a1-6)]Man(b1-4)GlcNAc(b1-4)[Fuc(a1-6)]GlcNAc
Summary of the method: as §1

[11] = biological target: GlcNAc(b1-2)[GlcNAc(b1-6)]Man(a1-6)[GlcNAc(b1-2)Man(a1-3)]Man(b1-4)GlcNAc(b1-4)GlcNAc
Summary of the method: as §1

[12] = biological target: GlcNAc(b1-2)[GlcNAc(b1-6)]Man(a1-6)[GlcNAc(b1-2)Man(a1-3)]Man(b1-4)GlcNAc(b1-4)[Fuc(a1-6)]GlcNAc
Summary of the method: as §1

[13] = biological target: GlcNAc(b1-2)[GlcNAc(b1-6)]Man(a1-6)[GlcNAc(b1-4)][GlcNAc(b1-2)Man(a1-3)]Man(b1-4)GlcNAc(b1-4)GlcNAc
Summary of the method: as §1

GlcNAc(b1-3)Fuc = biological target: GlcNAc(b1-3)Fuc
Summary of the method: as §1

GlcNAc(b1-3)Gal = biological target: GlcNAc(b1-3)Gal
Summary of the method: as §1

[14] = biological target: GlcNAc(b1-3)Gal(b1-3)GalNAc
Summary of the method: as §1

GlcNAc(b1-3)Gal(b1-4)Glc = biological target: GlcNAc(b1-3)Gal(b1-4)Glc
Summary of the method: as §1

[15] = biological target: GlcNAc(b1-3)Gal(b1-4)GlcNAc
Summary of the method: as §1

[16] = biological target: GlcNAc(b1-3)Gal(b1-4)GlcNAc(b1-2)Man(a1-3)[GlcNAc(b1-3)Gal(b1-4)GlcNAc(b1-2)Man(a1-6)]Man(b1-4)GlcNAc(b1-4)GlcNAc
Summary of the method: as §1

[17] = biological target: GlcNAc(b1-3)Gal(b1-4)GlcNAc(b1-2)Man(a1-3)[GlcNAc(b1-3)Gal(b1-4)GlcNAc(b1-2)Man(a1-6)]Man(b1-4)GlcNAc(b1-4)[Fuc(a1-6)]GlcNAc
Summary of the method: as §1

[18] = biological target: GlcNAc(b1-3)Gal(b1-4)GlcNAc(b1-2)[GlcNAc(b1-3)Gal(b1-4)GlcNAc(b1-6)]Man(a1-6)[GlcNAc(b1-3)Gal(b1-4)GlcNAc(b1-2)Man(a1-3)]Man(b1-4)GlcNAc(b1-4)GlcNAc
Summary of the method: as §1

[19] = biological target: GlcNAc(b1-3)Gal(b1-4)GlcNAc(b1-3)Gal(b1-4)GlcNAc
Summary of the method: as §1

[20] = biological target: GlcNAc(b1-3)Gal(b1-4)GlcNAc(b1-3)Gal(b1-4)GlcNAc(b1-2)Man(a1-3)[GlcNAc(b1-3)Gal(b1-4)GlcNAc(b1-3)Gal(b1-4)GlcNAc(b1-2)Man(a1-6)]Man(b1-4)GlcNAc(b1-4)GlcNAc
Summary of the method: as §1

[21] = biological target: GlcNAc(b1-3)Gal(b1-4)GlcNAc(b1-3)Gal(b1-4)GlcNAc(b1-2)Man(a1-3)[GlcNAc(b1-3)Gal(b1-4)GlcNAc(b1-3)Gal(b1-4)GlcNAc(b1-2)Man(a1-6)]Man(b1-4)GlcNAc(b1-4)[Fuc(a1-6)]GlcNAc
Summary of the method: as §1

[22] = biological target: GlcNAc(b1-3)Gal(b1-4)GlcNAc(b1-3)Gal(b1-4)GlcNAc(b1-2)[GlcNAc(b1-3)Gal(b1-4)GlcNAc(b1-3)Gal(b1-4)GlcNAc(b1-6)]Man(a1-6)[GlcNAc(b1-3)Gal(b1-4)GlcNAc(b1-3)Gal(b1-4)GlcNAc(b1-2)Man(a1-3)]Man(b1-4)GlcNAc(b1-4)[Fuc(a1-6)]GlcNAc
Summary of the method: as §1

[23] = biological target: GlcNAc(b1-3)Gal(b1-4)GlcNAc(b1-3)Gal(b1-4)GlcNAc(b1-3)Gal(b1-4)GlcNAc(b1-2)Man(a1-3)[GlcNAc(b1-3)Gal(b1-4)GlcNAc(b1-3)Gal(b1-4)GlcNAc(b1-3)Gal(b1-4)GlcNAc(b1-2)Man(a1-6)]Man(b1-4)GlcNAc(b1-4)GlcNAc
Summary of the method: as §1

[24] = biological target: GlcNAc(b1-3)Gal(b1-4)GlcNAc(b1-3)Gal(b1-4)GlcNAc(b1-3)Gal(b1-4)GlcNAc(b1-2)Man(a1-3)[GlcNAc(b1-3)Gal(b1-4)GlcNAc(b1-3)Gal(b1-4)GlcNAc(b1-3)Gal(b1-4)GlcNAc(b1-2)Man(a1-6)]Man(b1-4)GlcNAc(b1-4)[Fuc(a1-6)]GlcNAc
Summary of the method: as §1

[25] = biological target: GlcNAc(b1-3)Gal(b1-4)GlcNAc(b1-3)Gal(b1-4)GlcNAc(b1-3)Gal(b1-4)GlcNAc(b1-2)[GlcNAc(b1-3)Gal(b1-4)GlcNAc(b1-3)Gal(b1-4)GlcNAc(b1-3)Gal(b1-4)GlcNAc(b1-6)]Man(a1-6)[GlcNAc(b1-3)Gal(b1-4)GlcNAc(b1-3)Gal(b1-4)GlcNAc(b1-3)Gal(b1-4)GlcNAc(b1-2)Man(a1-3)]Man(b1-4)GlcNAc(b1-4)[Fuc(a1-6)]GlcNAc
Summary of the method: as §1

[26] = biological target: GlcNAc(b1-3)Gal(b1-4)GlcNAc(b1-3)Gal(b1-4)GlcNAc(b1-3)Gal(b1-4)GlcNAc(b1-3)Gal(b1-4)GlcNAc(b1-2)Man(a1-3)[GlcNAc(b1-3)Gal(b1-4)GlcNAc(b1-3)Gal(b1-4)GlcNAc(b1-3)Gal(b1-4)GlcNAc(b1-3)Gal(b1-4)GlcNAc(b1-2)Man(a1-6)]Man(b1-4)GlcNAc(b1-4)GlcNAc
Summary of the method: as §1

[27] = biological target: GlcNAc(b1-3)Gal(b1-4)GlcNAc(b1-3)Gal(b1-4)GlcNAc(b1-3)Gal(b1-4)GlcNAc(b1-3)Gal(b1-4)GlcNAc(b1-2)Man(a1-3)[GlcNAc(b1-3)Gal(b1-4)GlcNAc(b1-3)Gal(b1-4)GlcNAc(b1-3)Gal(b1-4)GlcNAc(b1-3)Gal(b1-4)GlcNAc(b1-2)Man(a1-6)]Man(b1-4)GlcNAc(b1-4)[Fuc(a1-6)]GlcNAc
Summary of the method: as §1

B1: R2-fiber (Pseudomonas aeruginosa), Q9S576 (protein)
chain: HHHHHHKVAKDLVVSLAYQVRTEDGVLVDESPVSAPLDYLHGHGSLISGLETALEGHEVGDKFDVAVGANDAYGQYDENLVQRVPKDVFMGVDELQVGMRFLAETDQGPVPVEITAVEDDHVVVDGNHMLAGQNLKFNVEVVAIREATEEELAHGHVHGAHDHHHDHDHDGCCGGHGHDHGHEHGGEGCCGGKGNGGCGCHENLYFQGVTAGMALAATDIPGLDASKLVSGVLAEQRLPVFARGLATAVSNSSDPNTATVPLMLTNHANGPVAGRYFYIQSMFYPDQNGNASQIATSYNATSEMYVRVSYAANPSIREWLPWQRCDIGGSFTKEADGELPGGVNLDSMVTSGWWSQSFTAQAASGANYPIVRAGLLHVYAASSNFIYQTYQAYDGESFYFRCRHSNTWFPWRRMWHGGDFNPSDYLLKSGFYWNALPGKPATFPPSAHNHDVGQLTSGILPLARGGVGSNTAAGARSTIGAGVPATASLGASGWWRDNDTGLIRQWGQVTCPADADASITFPIPFPTLCLGGYANQTSAFHPGTDASTGFRGATTTTAVIRNGYFAQAVLSWEAFGR
glycan array binding signal (z-score) [1]: -0.052 | glycan array binding signal (z-score) [2]: -0.689 | glycan array binding signal (z-score) [3]: -0.255 | glycan array binding signal (z-score) [4]: -0.142 | glycan array binding signal (z-score) [5]: -0.205 | glycan array binding signal (z-score) [6]: -0.091 | glycan array binding signal (z-score) [7]: -0.215 | glycan array binding signal (z-score) [8]: 0.423 | glycan array binding signal (z-score) [9]: -0.181 | glycan array binding signal (z-score) [10]: -0.347 | glycan array binding signal (z-score) [11]: -0.621 | glycan array binding signal (z-score) [12]: 14.6 | glycan array binding signal (z-score) [13]: -0.423 | glycan array binding signal (z-score) (GlcNAc(b1-3)Fuc): -0.211 | glycan array binding signal (z-score) (GlcNAc(b1-3)Gal): -0.736 | glycan array binding signal (z-score) [14]: 0.38 | glycan array binding signal (z-score) (GlcNAc(b1-3)Gal(b1-4)Glc): -1.75 | glycan array binding signal (z-score) [15]: -0.499 | glycan array binding signal (z-score) [16]: 0.012 | glycan array binding signal (z-score) [17]: -0.218 | glycan array binding signal (z-score) [18]: 0.612 | glycan array binding signal (z-score) [19]: 0.586 | glycan array binding signal (z-score) [20]: -0.458 | glycan array binding signal (z-score) [21]: 1.45 | glycan array binding signal (z-score) [22]: 0.519 | glycan array binding signal (z-score) [23]: -0.599 | glycan array binding signal (z-score) [24]: 0.444 | glycan array binding signal (z-score) [25]: 0.406 | glycan array binding signal (z-score) [26]: -0.528 | glycan array binding signal (z-score) [27]: 0.092
